Test results from the supplement of paper PMC10032668.
The other results are listed elsewhere or left out. Only hits are listed; about a third recur on repeated control peptides.

Protein sequences, listed by entry. Tags and fused reporters are not part of them.
KPNA1, P52294, UniProt P52294, whole entry: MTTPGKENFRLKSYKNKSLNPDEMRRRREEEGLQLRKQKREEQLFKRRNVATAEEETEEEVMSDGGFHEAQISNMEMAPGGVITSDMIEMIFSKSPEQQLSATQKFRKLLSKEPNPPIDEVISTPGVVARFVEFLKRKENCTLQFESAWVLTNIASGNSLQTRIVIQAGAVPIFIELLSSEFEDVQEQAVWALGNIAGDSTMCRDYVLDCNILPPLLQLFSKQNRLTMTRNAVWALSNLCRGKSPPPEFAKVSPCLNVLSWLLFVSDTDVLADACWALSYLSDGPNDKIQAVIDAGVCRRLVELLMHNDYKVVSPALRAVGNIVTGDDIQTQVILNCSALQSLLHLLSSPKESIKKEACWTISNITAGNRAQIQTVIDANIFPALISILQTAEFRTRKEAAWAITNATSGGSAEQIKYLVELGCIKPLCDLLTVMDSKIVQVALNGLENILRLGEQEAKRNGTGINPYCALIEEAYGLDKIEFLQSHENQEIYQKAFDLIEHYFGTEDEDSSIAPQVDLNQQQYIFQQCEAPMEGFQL
SRSF1, Q07955, UniProt Q07955, whole entry: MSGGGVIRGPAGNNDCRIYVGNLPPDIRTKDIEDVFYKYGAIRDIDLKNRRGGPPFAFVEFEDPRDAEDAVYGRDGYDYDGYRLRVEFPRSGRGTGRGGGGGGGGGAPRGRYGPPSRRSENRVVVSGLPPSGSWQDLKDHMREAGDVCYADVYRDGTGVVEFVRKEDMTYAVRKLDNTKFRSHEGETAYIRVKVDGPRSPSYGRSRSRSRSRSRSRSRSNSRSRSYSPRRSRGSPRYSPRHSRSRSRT
SRSF9, Q13242, UniProt Q13242, whole entry: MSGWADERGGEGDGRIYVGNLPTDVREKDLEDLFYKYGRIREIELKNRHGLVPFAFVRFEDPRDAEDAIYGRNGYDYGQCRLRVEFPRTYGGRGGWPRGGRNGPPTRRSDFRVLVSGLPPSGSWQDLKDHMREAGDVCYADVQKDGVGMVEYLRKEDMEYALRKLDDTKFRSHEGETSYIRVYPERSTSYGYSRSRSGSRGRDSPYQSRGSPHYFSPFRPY
RUVBL1, Q9Y265, UniProt Q9Y265, whole entry: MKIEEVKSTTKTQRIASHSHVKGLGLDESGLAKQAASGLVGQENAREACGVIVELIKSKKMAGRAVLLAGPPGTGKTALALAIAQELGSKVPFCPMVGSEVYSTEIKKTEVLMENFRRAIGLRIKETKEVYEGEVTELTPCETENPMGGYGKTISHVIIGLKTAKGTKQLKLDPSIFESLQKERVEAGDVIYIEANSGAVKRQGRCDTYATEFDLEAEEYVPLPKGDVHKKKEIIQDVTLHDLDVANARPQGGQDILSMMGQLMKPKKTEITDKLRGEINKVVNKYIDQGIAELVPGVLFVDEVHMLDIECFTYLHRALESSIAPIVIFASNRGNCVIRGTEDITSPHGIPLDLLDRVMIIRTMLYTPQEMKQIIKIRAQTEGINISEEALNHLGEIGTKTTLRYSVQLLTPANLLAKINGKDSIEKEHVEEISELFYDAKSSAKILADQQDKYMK
RUVBL2, Q9Y230, UniProt Q9Y230, whole entry: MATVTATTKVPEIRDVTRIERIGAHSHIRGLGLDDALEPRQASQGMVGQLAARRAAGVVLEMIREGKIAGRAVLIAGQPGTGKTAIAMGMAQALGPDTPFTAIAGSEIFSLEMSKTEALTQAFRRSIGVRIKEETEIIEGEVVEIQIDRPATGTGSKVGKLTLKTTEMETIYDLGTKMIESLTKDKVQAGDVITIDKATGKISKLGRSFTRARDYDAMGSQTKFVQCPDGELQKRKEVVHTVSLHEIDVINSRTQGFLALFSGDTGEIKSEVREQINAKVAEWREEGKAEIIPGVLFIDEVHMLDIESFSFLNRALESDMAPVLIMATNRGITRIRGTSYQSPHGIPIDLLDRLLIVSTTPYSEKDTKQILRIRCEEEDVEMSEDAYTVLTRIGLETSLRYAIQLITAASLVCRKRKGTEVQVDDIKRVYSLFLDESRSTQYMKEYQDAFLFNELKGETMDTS
ACTBL2, Q562R1, UniProt Q562R1, whole entry: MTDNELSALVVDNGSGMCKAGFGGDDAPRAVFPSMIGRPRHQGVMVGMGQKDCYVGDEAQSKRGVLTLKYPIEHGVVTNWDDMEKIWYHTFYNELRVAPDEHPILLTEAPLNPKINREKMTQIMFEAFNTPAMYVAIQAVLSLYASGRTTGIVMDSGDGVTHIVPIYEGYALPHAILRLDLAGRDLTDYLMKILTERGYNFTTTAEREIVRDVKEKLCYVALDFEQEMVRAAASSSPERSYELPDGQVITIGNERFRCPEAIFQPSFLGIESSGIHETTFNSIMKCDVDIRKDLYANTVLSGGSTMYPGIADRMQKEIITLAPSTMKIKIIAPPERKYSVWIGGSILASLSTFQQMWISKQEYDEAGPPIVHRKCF
CD2AP, Q9Y5K6, UniProt Q9Y5K6, whole entry: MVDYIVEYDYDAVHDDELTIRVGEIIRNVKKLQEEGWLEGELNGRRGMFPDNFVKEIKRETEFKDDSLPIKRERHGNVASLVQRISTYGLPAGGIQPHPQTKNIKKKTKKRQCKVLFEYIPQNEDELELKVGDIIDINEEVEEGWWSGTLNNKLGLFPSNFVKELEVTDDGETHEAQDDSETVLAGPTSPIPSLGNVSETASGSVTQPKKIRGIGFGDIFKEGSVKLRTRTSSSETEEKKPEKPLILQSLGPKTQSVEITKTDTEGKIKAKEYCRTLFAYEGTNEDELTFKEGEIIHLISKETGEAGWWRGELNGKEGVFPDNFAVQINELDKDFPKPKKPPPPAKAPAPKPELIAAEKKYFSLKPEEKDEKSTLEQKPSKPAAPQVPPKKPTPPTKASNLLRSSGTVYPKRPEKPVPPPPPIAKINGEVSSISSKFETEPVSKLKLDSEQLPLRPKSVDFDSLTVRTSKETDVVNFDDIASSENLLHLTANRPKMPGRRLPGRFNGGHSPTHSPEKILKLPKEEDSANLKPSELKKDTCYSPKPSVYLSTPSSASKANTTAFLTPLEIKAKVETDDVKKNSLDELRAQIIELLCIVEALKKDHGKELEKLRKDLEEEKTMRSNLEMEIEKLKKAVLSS
NDUFB5, O43674, UniProt O43674, whole entry: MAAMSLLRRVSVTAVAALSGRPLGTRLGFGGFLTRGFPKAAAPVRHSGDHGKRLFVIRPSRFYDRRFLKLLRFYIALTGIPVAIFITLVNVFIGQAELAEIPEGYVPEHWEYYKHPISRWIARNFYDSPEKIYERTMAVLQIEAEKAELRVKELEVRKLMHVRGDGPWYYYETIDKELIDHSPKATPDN
COIL, P38432, UniProt P38432, whole entry: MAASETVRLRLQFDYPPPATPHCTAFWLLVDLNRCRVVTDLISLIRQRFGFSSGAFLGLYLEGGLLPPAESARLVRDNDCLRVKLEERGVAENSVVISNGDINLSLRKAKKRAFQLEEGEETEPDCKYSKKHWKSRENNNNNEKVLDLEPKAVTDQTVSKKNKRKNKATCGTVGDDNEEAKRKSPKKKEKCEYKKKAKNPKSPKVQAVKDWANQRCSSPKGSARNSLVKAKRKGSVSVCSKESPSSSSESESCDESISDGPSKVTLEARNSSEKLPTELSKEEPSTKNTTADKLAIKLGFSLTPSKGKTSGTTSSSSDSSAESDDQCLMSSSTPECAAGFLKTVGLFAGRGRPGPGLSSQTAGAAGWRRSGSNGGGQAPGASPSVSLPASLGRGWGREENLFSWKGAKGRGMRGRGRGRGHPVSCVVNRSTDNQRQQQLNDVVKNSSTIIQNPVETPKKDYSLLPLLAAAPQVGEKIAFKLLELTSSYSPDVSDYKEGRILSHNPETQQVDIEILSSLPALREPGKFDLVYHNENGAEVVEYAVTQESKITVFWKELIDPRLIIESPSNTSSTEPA
DCTN1, Q14203, UniProt Q14203, whole entry: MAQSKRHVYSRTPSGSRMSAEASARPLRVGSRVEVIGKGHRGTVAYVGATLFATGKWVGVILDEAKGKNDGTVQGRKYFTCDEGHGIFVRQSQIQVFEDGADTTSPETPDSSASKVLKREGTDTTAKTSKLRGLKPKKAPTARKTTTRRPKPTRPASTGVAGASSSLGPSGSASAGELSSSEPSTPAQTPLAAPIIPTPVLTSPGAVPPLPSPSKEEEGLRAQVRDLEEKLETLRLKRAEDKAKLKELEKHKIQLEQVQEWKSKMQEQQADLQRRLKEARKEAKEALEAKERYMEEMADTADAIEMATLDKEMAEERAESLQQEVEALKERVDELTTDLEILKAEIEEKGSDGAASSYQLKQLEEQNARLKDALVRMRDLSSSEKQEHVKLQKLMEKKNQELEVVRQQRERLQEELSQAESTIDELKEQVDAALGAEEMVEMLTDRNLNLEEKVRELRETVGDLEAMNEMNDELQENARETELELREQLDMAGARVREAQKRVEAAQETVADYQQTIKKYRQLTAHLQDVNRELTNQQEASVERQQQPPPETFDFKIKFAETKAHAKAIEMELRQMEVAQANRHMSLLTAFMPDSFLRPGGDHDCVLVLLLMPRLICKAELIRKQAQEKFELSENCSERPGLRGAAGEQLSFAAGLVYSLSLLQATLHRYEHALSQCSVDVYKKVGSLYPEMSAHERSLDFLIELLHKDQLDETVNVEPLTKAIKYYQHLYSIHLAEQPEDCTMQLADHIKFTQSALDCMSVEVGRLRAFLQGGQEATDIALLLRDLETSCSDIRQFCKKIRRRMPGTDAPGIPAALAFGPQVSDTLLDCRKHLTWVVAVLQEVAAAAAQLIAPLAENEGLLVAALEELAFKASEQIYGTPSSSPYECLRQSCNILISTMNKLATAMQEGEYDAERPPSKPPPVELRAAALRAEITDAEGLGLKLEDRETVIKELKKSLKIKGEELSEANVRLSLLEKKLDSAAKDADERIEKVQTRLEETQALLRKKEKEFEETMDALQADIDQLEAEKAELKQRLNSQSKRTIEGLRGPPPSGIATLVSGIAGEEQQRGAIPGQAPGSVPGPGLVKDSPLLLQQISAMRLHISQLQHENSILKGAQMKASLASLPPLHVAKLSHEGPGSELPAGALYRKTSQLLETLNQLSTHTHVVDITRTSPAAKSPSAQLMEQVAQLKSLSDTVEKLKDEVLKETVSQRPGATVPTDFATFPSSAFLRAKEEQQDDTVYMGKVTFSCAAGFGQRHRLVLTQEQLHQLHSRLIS

Tests used:
Experiment in all cases: PRISMA enrichment of interactor (LFQ) in peptide spot vs all other peptide spots (log2 fold change); higher = stronger / more specific binding of the interactor to the peptide
ACIN1, Q9UKV3 = molecular target: ACIN1, Q9UKV3
Experimental: (§1)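 PRISMA: 221 full-length sORF-encoded peptides (3-15 aa), plus SOS1/GLUT1 control peptides, were spot-synthesized on cellulose membranes in triplicate. Membranes were incubated with HEK293T lysate, and bound proteins were identified by LC-MS/MS with LFQ. Enrichment is the log2 fold change versus all other peptide spots; only significant interactors are listed (cutoff c=6, x0=2.8).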

ANP32A, P39687 = molecular target: ANP32A, P39687
Experimental: as §1

ANP32B, Q92688 = molecular target: ANP32B, Q92688
Experimental: as §1

ANP32E, Q9BTT0 = molecular target: ANP32E, Q9BTT0
Experimental: as §1

CALU, O43852 = molecular target: CALU, O43852
Experimental: as §1

CCDC47, Q96A33 = molecular target: CCDC47, Q96A33
Experimental: as §1

CTTN, Q14247 = molecular target: CTTN, Q14247
Experimental: as §1

DDX21, Q9NR30 = molecular target: DDX21, Q9NR30
Experimental: as §1

EIF6, P56537 = molecular target: EIF6, P56537
Experimental: as §1

GRSF1, Q12849 = molecular target: GRSF1, Q12849
Experimental: as §1

HTATSF1, O43719 = molecular target: HTATSF1, O43719
Experimental: as §1

KPNA1, P52294 = molecular target: KPNA1, P52294
Experimental: as §1

LARP1, Q6PKG0 = molecular target: LARP1, Q6PKG0
Experimental: as §1

LTV1, Q96GA3 = molecular target: LTV1, Q96GA3
Experimental: as §1

MOV10, Q9HCE1 = molecular target: MOV10, Q9HCE1
Experimental: as §1

MRPL1, Q9BYD6 = molecular target: MRPL1, Q9BYD6
Experimental: as §1

MRPL9, Q9BYD2 = molecular target: MRPL9, Q9BYD2
Experimental: as §1

MRPS2, Q9Y399 = molecular target: MRPS2, Q9Y399
Experimental: as §1

MRPS27, Q92552 = molecular target: MRPS27, Q92552
Experimental: as §1

MRPS31, Q92665 = molecular target: MRPS31, Q92665
Experimental: as §1

MRPS34, P82930 = molecular target: MRPS34, P82930
Experimental: as §1

MRPS35, P82673 = molecular target: MRPS35, P82673
Experimental: as §1

MRPS9, P82933 = molecular target: MRPS9, P82933
Experimental: as §1

NAT10, Q9H0A0 = molecular target: NAT10, Q9H0A0
Experimental: as §1

NDUFAB1, O14561 = molecular target: NDUFAB1, O14561
Experimental: as §1

NOB1, Q9ULX3 = molecular target: NOB1, Q9ULX3
Experimental: as §1

NUP107, P57740 = molecular target: NUP107, P57740
Experimental: as §1

PELP1, Q8IZL8 = molecular target: PELP1, Q8IZL8
Experimental: as §1

POLR2B, P30876 = molecular target: POLR2B, P30876
Experimental: as §1

PTCD3, Q96EY7 = molecular target: PTCD3, Q96EY7
Experimental: as §1

RBM10 = molecular target: RBM10
Experimental: as §1

RCN2, Q14257 = molecular target: RCN2, Q14257
Experimental: as §1

RIOK1, Q9BRS2 = molecular target: RIOK1, Q9BRS2
Experimental: as §1

RPS29, P62273 = molecular target: RPS29, P62273
Experimental: as §1

SART3, Q15020 = molecular target: SART3, Q15020
Experimental: as §1

SH3GL1, Q99961 = molecular target: SH3GL1, Q99961
Experimental: as §1

SNX9, Q9Y5X1 = molecular target: SNX9, Q9Y5X1
Experimental: as §1

SRSF1, Q07955 = molecular target: SRSF1, Q07955
Experimental: as §1

SRSF9, Q13242 = molecular target: SRSF9, Q13242
Experimental: as §1

SUPT5H, O00267 = molecular target: SUPT5H, O00267
Experimental: as §1

TSR1, Q2NL82 = molecular target: TSR1, Q2NL82
Experimental: as §1

ACO2, Q99798 = molecular target: ACO2, Q99798
Experimental: as §1

CPSF2, Q9P2I0 = molecular target: CPSF2, Q9P2I0
Experimental: as §1

HELLS, Q9NRZ9 = molecular target: HELLS, Q9NRZ9
Experimental: as §1

IARS2, Q9NSE4 = molecular target: IARS2, Q9NSE4
Experimental: as §1

LSM4, Q9Y4Z0 = molecular target: LSM4, Q9Y4Z0
Experimental: as §1

RUVBL1, Q9Y265 = molecular target: RUVBL1, Q9Y265
Experimental: as §1

RUVBL2, Q9Y230 = molecular target: RUVBL2, Q9Y230
Experimental: as §1

TOMM34, Q15785 = molecular target: TOMM34, Q15785
Experimental: as §1

ACTBL2, Q562R1 = molecular target: ACTBL2, Q562R1
Experimental: as §1

ARHGAP1, Q07960 = molecular target: ARHGAP1, Q07960
Experimental: as §1

BRAT1, Q6PJG6 = molecular target: BRAT1, Q6PJG6
Experimental: as §1

CD2AP, Q9Y5K6 = molecular target: CD2AP, Q9Y5K6
Experimental: as §1

NDUFB5, O43674 = molecular target: NDUFB5, O43674
Experimental: as §1

NUBP2, Q9Y5Y2 = molecular target: NUBP2, Q9Y5Y2
Experimental: as §1

REPIN1, Q9BWE0 = molecular target: REPIN1, Q9BWE0
Experimental: as §1

RPP38, P78345 = molecular target: RPP38, P78345
Experimental: as §1

TGM2, P21980 = molecular target: TGM2, P21980
Experimental: as §1

TRMU, O75648 = molecular target: TRMU, O75648
Experimental: as §1

COIL, P38432 = molecular target: COIL, P38432
Experimental: as §1

DCTN1, Q14203 = molecular target: DCTN1, Q14203
Experimental: as §1

DDX41, Q9UJV9 = molecular target: DDX41, Q9UJV9
Experimental: as §1

EMILIN1, Q9Y6C2 = molecular target: EMILIN1, Q9Y6C2
Experimental: as §1

MPHOSPH10, O00566 = molecular target: MPHOSPH10, O00566
Experimental: as §1

SOX8, P57073 = molecular target: SOX8, P57073
Experimental: as §1

B1: TMEM131 (peptide)
chain: MPRQRP
PRISMA enrichment of interactor (log2) (ACIN1, Q9UKV3): 5.1 | PRISMA enrichment of interactor (log2) (ANP32A, P39687): 6.26 | PRISMA enrichment of interactor (log2) (ANP32B, Q92688): 6.16 | PRISMA enrichment of interactor (log2) (ANP32E, Q9BTT0): 7.11 | PRISMA enrichment of interactor (log2) (CALU, O43852): 5.96 | PRISMA enrichment of interactor (log2) (CCDC47, Q96A33): 5.4 | PRISMA enrichment of interactor (log2) (CTTN, Q14247): 5.56 | PRISMA enrichment of interactor (log2) (DDX21, Q9NR30): 5.9 | PRISMA enrichment of interactor (log2) (EIF6, P56537): 5.34 | PRISMA enrichment of interactor (log2) (GRSF1, Q12849): 5.53 | PRISMA enrichment of interactor (log2) (HTATSF1, O43719): 6.11 | PRISMA enrichment of interactor (log2) (KPNA1, P52294): 5.86 | PRISMA enrichment of interactor (log2) (LARP1, Q6PKG0): 6.03 | PRISMA enrichment of interactor (log2) (LTV1, Q96GA3): 4.89 | PRISMA enrichment of interactor (log2) (MOV10, Q9HCE1): 5.6 | PRISMA enrichment of interactor (log2) (MRPL1, Q9BYD6): 4.88 | PRISMA enrichment of interactor (log2) (MRPL9, Q9BYD2): 5.18 | PRISMA enrichment of interactor (log2) (MRPS2, Q9Y399): 4.9 | PRISMA enrichment of interactor (log2) (MRPS27, Q92552): 5.32 | PRISMA enrichment of interactor (log2) (MRPS31, Q92665): 5.88 | PRISMA enrichment of interactor (log2) (MRPS34, P82930): 5.54 | PRISMA enrichment of interactor (log2) (MRPS35, P82673): 5.5 | PRISMA enrichment of interactor (log2) (MRPS9, P82933): 5.78 | PRISMA enrichment of interactor (log2) (NAT10, Q9H0A0): 5.67 | PRISMA enrichment of interactor (log2) (NDUFAB1, O14561): 4.98 | PRISMA enrichment of interactor (log2) (NOB1, Q9ULX3): 4.78 | PRISMA enrichment of interactor (log2) (NUP107, P57740): 4.43 | PRISMA enrichment of interactor (log2) (PELP1, Q8IZL8): 5.61 | PRISMA enrichment of interactor (log2) (POLR2B, P30876): 4.98 | PRISMA enrichment of interactor (log2) (PTCD3, Q96EY7): 6.08 | PRISMA enrichment of interactor (log2) (RBM10): 6.92 | PRISMA enrichment of interactor (log2) (RCN2, Q14257): 5.54 | PRISMA enrichment of interactor (log2) (RIOK1, Q9BRS2): 5.8 | PRISMA enrichment of interactor (log2) (RPS29, P62273): 5.32 | PRISMA enrichment of interactor (log2) (SART3, Q15020): 5.3 | PRISMA enrichment of interactor (log2) (SH3GL1, Q99961): 5.16 | PRISMA enrichment of interactor (log2) (SNX9, Q9Y5X1): 5.42 | PRISMA enrichment of interactor (log2) (SRSF1, Q07955): 5.8 | PRISMA enrichment of interactor (log2) (SRSF9, Q13242): 6.47 | PRISMA enrichment of interactor (log2) (SUPT5H, O00267): 5.86 | PRISMA enrichment of interactor (log2) (TSR1, Q2NL82): 5.13

B2: MTIF3 (peptide)
chain: MITVLPKKAYLM
PRISMA enrichment of interactor (log2) (ACO2, Q99798): 6.47 | PRISMA enrichment of interactor (log2) (CPSF2, Q9P2I0): 4.75 | PRISMA enrichment of interactor (log2) (HELLS, Q9NRZ9): 5.04 | PRISMA enrichment of interactor (log2) (IARS2, Q9NSE4): 10 | PRISMA enrichment of interactor (log2) (KPNA1, P52294): 7.07 | PRISMA enrichment of interactor (log2) (LSM4, Q9Y4Z0): 8.82 | PRISMA enrichment of interactor (log2) (RUVBL1, Q9Y265): 5.14 | PRISMA enrichment of interactor (log2) (RUVBL2, Q9Y230): 5.14 | PRISMA enrichment of interactor (log2) (TOMM34, Q15785): 6.22

B3: TNPO3 (peptide)
chain: MAPVRERPWPRQ
PRISMA enrichment of interactor (log2) (ACTBL2, Q562R1): 7.41 | PRISMA enrichment of interactor (log2) (ARHGAP1, Q07960): 4.28 | PRISMA enrichment of interactor (log2) (BRAT1, Q6PJG6): 7.02 | PRISMA enrichment of interactor (log2) (CD2AP, Q9Y5K6): 7.38 | PRISMA enrichment of interactor (log2) (NDUFB5, O43674): 6.25 | PRISMA enrichment of interactor (log2) (NUBP2, Q9Y5Y2): 8.91 | PRISMA enrichment of interactor (log2) (REPIN1, Q9BWE0): 4.71 | PRISMA enrichment of interactor (log2) (RPP38, P78345): 4.83 | PRISMA enrichment of interactor (log2) (TGM2, P21980): 6.97 | PRISMA enrichment of interactor (log2) (TRMU, O75648): 3.8

B4: RHOB (peptide)
chain: MLSEARRDPGES
PRISMA enrichment of interactor (log2) (ACTBL2, Q562R1): 6.43 | PRISMA enrichment of interactor (log2) (COIL, P38432): 5.49 | PRISMA enrichment of interactor (log2) (DCTN1, Q14203): 7.23 | PRISMA enrichment of interactor (log2) (DDX41, Q9UJV9): 6.86 | PRISMA enrichment of interactor (log2) (EMILIN1, Q9Y6C2): 5.65 | PRISMA enrichment of interactor (log2) (MPHOSPH10, O00566): 5.26 | PRISMA enrichment of interactor (log2) (SOX8, P57073): 7.43
